This test has as its target METTL3 (human (endogenous in A549)) (UniProt Q86U44). As to the kind of experiment: co-IP; lysates in RIPA buffer, 500 µg total protein, 4 µg antibody at 4 °C for 16 h, protein G agarose beads 3 h; blots with anti-METTL3, anti-eIF4E, anti-eIF3e, anti-eIF3i.

By UniProt entry, the sequences of proteins in these tests, tags left out.
UniProt Q86U44: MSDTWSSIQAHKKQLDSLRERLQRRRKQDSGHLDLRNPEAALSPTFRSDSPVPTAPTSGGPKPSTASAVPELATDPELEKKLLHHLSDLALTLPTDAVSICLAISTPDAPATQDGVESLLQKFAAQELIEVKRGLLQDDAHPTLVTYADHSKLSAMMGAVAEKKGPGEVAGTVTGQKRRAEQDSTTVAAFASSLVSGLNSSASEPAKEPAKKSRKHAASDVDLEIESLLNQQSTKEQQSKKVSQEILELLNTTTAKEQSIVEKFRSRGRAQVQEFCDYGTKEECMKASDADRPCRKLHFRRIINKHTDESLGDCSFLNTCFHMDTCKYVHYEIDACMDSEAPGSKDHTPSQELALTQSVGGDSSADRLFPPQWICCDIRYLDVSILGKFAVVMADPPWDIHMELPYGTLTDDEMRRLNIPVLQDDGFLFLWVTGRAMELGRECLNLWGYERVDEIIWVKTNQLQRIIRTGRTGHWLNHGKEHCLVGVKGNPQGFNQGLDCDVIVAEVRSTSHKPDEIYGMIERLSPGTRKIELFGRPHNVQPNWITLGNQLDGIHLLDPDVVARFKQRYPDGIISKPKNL
UniProt P60228: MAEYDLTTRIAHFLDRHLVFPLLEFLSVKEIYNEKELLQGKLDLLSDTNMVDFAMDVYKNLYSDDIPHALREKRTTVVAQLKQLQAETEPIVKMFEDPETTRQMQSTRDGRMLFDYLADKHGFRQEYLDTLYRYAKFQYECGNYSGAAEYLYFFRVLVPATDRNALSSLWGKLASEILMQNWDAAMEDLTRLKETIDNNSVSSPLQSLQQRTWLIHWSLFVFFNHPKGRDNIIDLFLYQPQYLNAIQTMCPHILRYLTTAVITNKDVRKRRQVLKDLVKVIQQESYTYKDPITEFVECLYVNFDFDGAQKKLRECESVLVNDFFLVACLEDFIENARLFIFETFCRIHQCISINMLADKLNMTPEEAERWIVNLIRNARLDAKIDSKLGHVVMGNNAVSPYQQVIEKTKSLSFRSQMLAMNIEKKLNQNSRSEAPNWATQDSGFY
UniProt Q13347: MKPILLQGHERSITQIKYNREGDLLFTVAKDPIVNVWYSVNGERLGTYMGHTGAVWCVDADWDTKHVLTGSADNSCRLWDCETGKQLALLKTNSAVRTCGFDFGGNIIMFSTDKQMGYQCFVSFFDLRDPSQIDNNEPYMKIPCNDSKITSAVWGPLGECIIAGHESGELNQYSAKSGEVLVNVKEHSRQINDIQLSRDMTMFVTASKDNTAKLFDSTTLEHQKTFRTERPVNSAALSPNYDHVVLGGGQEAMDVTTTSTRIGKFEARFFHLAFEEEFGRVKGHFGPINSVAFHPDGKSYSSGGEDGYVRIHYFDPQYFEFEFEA

These are yes or no findings as the source states them, for the method shown. Binding seen in cells or lysates may run through a third protein. Some binding calls cover weakened binding; strength is not graded here.

As for eIF3e (from UniProt P60228 1-445), the binding result is listed as “binds”.
For the substance eIF3i (from UniProt Q13347 1-325), the binding result was “binds”.

The values above are taken from PMC10795463.
